# Measurements as given in patent US11583569B2, “PSMA-targeting amanitin conjugates” (Heidelberg Pharma Research GmbH, priority 2017, dated 2023).
# At least one structure is not confirmed: it was looked up by name or label, or the drawing left a doubt.
# Tested on: LNCaP (PSMA+)
# Format: cell-based
# Details: for S (selectivity): IC50 PC3 (PSMA−) / IC50 LNCaP (PSMA+); for TI for LNCaP: IC50 of free toxin / IC50 of conjugate
# Excerpt: Note: A direct comparison of all DUPA conjugates with amanitin was not performed in one experiment. The amanitin curve shown in the graph is derived from the direct comparison between HDP 30.2284 and amanitin.
compound,measurement,value
"CC[C@H](C)[C@@H]1NC(=O)CNC(=O)C2Cc3c([nH]c4cc(OCc5ccc(NC(=O)[C@H](C)NC(=O)[C@@H](NC(=O)CSC[C@@H](NC(=O)[C@H](Cc6ccccc6)NC(=O)[C@H](Cc6ccccc6)NC(=O)CCCCCCCNC(=O)CCC(NC(=O)NC(CCC(=O)O)C(=O)O)C(=O)O)C(=O)O)C(C)C)cc5)ccc34)[S+]([O-])CC(NC(=O)CNC1=O)C(=O)N[C@@H](CC(N)=O)C(=O)N1CC(O)C[C@H]1C(=O)N[C@@H]([C@@H](C)[C@@H](O)CO)C(=O)N2 (stereo partly drawn) [HDP 30.2515, 6′-O-[2-((DUPA-Aoc-Phe-Phe-Cys)-sulfanyl)-acetamido-Val-Ala-PAB]-α-amantin]",S (selectivity),147
same,TI for LNCaP,106
"CC[C@H](C)[C@@H]1NC(=O)CNC(=O)[C@@H]2Cc3c([nH]c4cc(OCCCCCCNC(=O)CSC[C@H](NC(=O)[C@H](Cc5ccccc5)NC(=O)[C@H](Cc5ccccc5)NC(=O)CCCCCCCNC(=O)CC[C@H](NC(=O)N[C@@H](CCC(=O)O)C(=O)O)C(=O)O)C(=O)O)ccc34)[S@+]([O-])C[C@H](NC(=O)CNC1=O)C(=O)N[C@@H](CC(N)=O)C(=O)N1C[C@H](O)C[C@H]1C(=O)N[C@@H]([C@@H](C)[C@@H](O)CO)C(=O)N2 [HDP 30.2523, 6′-O-[6-(2-((DUPA-Aoc-Phe-Phe-Cys)-sulfanyl)-acetamido)-hexyl]-α-amantin]",S (selectivity),266
same,TI for LNCaP,71
